Values quoted from earlier work as cited in patent US20220183999A1, “Cannabidiol Pharmaceutical Compositions” (Sorrento Therapeutics, Inc., priority 2019, published 2022).
Converted amounts (≈) assume the structure as drawn.

In the case of C=C(C)[C@@H]1CCC(C)=C[C@H]1c1c(O)cc(CCCCC)cc1O [CBD, Cannabidiol], the solubility in water is given as 13 µg/mL (≈ 41.3 µM).
